Results on 3 molecules are retold here after paper PMC11066007, “CORVET-specific subunit levels determine the balance between HOPS/CORVET endosomal tethering complexes” (Scientific Reports, 2024).

No constants are given. Whether binding was seen depends on the method and setting. For some assays here: Binding seen in cells or lysates may run through a third protein. Some binding calls cover weakened binding; strength is not graded here. Tags and fused reporters may be left off the sequences shown.

For experiment [1], the target named is T1, VPS41 (yeast two-hybrid fusion) (human) (UniProt P49754).
T1 sequence: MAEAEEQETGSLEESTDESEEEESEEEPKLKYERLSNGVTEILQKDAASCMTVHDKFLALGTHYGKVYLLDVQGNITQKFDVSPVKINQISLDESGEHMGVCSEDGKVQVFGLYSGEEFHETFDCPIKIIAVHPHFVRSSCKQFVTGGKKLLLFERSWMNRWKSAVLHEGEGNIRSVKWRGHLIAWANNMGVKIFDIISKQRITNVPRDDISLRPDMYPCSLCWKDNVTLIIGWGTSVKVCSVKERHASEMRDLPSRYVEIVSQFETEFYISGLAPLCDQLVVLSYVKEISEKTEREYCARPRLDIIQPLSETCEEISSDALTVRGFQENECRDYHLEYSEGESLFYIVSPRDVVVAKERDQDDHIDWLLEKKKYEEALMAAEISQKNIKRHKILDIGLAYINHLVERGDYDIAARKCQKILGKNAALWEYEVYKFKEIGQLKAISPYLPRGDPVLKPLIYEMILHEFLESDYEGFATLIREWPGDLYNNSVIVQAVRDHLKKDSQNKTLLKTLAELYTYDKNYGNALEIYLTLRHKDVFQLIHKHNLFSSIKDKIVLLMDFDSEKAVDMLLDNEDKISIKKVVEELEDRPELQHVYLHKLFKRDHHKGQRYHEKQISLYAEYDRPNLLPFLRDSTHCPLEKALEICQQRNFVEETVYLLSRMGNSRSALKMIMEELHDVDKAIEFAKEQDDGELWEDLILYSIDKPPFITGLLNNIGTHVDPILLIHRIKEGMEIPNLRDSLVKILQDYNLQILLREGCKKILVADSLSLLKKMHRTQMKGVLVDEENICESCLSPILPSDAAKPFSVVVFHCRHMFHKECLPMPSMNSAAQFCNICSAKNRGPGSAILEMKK
In words: two-hybrid; yeast AH109 co-transformed with pGADT7 and pGBKT7 constructs; selection on SD-WL, interaction read by growth on SD-WL without adenine or histidine; 48 h at 30 °C.

Experiment [2] addresses T2, VPS8 (yeast two-hybrid fusion) (human) (UniProt Q8N3P4).
T2 sequence: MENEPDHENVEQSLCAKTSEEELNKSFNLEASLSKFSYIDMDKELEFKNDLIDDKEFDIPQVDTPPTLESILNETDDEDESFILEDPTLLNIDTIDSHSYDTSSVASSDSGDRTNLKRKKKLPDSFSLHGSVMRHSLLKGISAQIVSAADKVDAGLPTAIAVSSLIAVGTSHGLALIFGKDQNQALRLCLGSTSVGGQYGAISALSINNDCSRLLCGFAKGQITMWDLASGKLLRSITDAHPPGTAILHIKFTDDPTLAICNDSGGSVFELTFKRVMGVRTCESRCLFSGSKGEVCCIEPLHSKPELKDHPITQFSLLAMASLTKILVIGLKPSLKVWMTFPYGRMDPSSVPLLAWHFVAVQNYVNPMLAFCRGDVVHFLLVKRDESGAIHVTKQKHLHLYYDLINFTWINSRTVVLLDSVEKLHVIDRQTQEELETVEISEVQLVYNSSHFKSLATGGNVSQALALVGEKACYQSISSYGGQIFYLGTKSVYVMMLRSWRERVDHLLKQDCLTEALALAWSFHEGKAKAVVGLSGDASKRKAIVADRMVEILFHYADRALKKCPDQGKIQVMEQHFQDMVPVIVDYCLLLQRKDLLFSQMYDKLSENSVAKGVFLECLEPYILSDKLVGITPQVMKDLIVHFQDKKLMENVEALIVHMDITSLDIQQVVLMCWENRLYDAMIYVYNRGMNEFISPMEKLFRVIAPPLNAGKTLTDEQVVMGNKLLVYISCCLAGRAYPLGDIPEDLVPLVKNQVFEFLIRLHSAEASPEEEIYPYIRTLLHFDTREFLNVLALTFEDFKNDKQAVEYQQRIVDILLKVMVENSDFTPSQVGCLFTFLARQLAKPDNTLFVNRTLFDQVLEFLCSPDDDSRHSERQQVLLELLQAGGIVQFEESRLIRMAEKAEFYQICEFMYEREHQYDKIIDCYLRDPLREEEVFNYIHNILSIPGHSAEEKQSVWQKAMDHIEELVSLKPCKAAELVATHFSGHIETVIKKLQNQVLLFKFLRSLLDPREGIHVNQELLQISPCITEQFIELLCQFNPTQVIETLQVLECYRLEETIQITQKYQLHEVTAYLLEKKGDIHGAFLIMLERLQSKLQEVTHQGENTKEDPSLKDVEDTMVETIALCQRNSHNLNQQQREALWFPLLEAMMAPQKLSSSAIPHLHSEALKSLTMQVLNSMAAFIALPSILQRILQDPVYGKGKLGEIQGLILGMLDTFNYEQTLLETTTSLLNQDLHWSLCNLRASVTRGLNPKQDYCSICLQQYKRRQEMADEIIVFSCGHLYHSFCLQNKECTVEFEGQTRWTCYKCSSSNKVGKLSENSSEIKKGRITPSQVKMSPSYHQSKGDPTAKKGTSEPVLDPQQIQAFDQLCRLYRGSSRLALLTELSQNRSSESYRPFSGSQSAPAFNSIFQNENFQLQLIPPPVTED
The experiment is described as above.

Experiment [3] has as its target T3, VPS11 (human (endogenous in HEK293)) (UniProt Q9H270).
T3 sequence: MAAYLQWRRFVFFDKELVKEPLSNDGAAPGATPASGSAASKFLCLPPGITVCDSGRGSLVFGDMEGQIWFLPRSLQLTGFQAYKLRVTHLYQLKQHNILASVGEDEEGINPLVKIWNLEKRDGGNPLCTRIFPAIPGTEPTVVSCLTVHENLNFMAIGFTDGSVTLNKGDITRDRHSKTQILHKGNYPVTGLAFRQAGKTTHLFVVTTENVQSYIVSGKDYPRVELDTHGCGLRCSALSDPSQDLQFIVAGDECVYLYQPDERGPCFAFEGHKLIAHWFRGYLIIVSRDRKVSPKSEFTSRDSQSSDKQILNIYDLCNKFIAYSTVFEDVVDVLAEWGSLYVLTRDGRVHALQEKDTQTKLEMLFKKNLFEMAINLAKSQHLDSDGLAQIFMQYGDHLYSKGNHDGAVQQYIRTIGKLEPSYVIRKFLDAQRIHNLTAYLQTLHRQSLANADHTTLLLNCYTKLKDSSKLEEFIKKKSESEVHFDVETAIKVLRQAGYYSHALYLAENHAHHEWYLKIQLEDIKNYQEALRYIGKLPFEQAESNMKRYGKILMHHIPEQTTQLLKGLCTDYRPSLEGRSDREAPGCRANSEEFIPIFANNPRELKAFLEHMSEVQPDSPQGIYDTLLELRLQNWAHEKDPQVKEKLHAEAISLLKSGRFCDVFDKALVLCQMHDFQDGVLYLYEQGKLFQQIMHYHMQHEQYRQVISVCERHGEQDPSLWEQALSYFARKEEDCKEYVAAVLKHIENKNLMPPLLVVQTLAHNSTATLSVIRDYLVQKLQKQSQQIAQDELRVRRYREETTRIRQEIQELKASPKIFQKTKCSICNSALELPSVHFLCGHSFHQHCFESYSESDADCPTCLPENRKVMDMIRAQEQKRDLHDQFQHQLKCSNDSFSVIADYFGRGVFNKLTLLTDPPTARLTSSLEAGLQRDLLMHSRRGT
In words: co-IP; anti-FLAG beads on total lysates of HEK293 cells stably transfected with a FLAG-tagged specific subunit, with or without transient overexpression of the counterpart subunit (control: pCMV); endogenous VPS11 and VPS18 detected by western blot, densitometry with ImageJ; lysis buffer 50 mM TRIS-HCl pH 7.5, 150 mM NaCl, 1% Triton X-100, 5 mM EDTA; 1.5 h at 4 °C. In general terms: Immunoblotting shows a protein as a band on a membrane.

For experiment [4], the target named is T4, VPS18 (human (endogenous in HEK293)) (UniProt Q9P253).
T4 sequence: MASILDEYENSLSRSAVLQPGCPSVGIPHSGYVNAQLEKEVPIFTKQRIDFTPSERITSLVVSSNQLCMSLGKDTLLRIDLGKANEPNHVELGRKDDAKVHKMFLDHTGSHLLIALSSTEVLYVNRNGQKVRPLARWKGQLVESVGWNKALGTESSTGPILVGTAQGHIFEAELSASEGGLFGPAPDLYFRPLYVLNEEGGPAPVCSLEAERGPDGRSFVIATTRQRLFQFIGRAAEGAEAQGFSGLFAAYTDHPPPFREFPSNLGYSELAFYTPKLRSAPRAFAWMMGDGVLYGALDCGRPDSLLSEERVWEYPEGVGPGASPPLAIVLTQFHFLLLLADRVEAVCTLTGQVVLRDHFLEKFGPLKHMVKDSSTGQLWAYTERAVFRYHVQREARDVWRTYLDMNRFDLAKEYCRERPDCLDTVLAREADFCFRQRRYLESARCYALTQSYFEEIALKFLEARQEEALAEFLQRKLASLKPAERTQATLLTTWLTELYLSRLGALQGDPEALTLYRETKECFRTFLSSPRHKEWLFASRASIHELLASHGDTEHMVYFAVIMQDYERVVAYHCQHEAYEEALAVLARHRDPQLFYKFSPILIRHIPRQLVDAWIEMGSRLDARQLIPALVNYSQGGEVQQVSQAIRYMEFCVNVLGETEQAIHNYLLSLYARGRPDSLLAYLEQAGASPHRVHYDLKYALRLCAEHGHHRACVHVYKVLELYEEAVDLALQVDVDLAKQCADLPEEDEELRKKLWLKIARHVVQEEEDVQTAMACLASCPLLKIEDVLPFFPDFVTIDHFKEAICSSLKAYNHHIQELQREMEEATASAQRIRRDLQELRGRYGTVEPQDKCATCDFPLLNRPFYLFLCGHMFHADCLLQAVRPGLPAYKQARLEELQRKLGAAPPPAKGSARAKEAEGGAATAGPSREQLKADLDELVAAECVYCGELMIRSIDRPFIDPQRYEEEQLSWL
Described as above.

B1: VPS18 aa 482-854 (yeast two-hybrid fusion) (domain or fragment, UniProt Q9P253 482-854)
chain: PAERTQATLLTTWLTELYLSRLGALQGDPEALTLYRETKECFRTFLSSPRHKEWLFASRASIHELLASHGDTEHMVYFAVIMQDYERVVAYHCQHEAYEEALAVLARHRDPQLFYKFSPILIRHIPRQLVDAWIEMGSRLDARQLIPALVNYSQGGEVQQVSQAIRYMEFCVNVLGETEQAIHNYLLSLYARGRPDSLLAYLEQAGASPHRVHYDLKYALRLCAEHGHHRACVHVYKVLELYEEAVDLALQVDVDLAKQCADLPEEDEELRKKLWLKIARHVVQEEEDVQTAMACLASCPLLKIEDVLPFFPDFVTIDHFKEAICSSLKAYNHHIQELQREMEEATASAQRIRRDLQELRGRYGTVEPQDKCA
On to B1, for which the binding entry in experiment [1] and in experiment [2] was “binds” each time.

B2: VPS18 aa 855-973 (yeast two-hybrid fusion) (domain or fragment, UniProt Q9P253 855-973)
chain: TCDFPLLNRPFYLFLCGHMFHADCLLQAVRPGLPAYKQARLEELQRKLGAAPPPAKGSARAKEAEGGAATAGPSREQLKADLDELVAAECVYCGELMIRSIDRPFIDPQRYEEEQLSWL
In the case of B2, in experiment [2], the binding result is given as “binds”.

B3: Tgfbrap1-HA (protein, UniProt Q8WUH2 1-860)
chain: MMSIKAFTLVSAVERELLMGDKERVNIECVECCGRDLYVGTNDCFVYHFLLEERPVPAGPATFTATKQLQRHLGFKKPVNELRAASALNRLLVLCDNSISLVNMLNLEPVPSGARIKGAATFALNENPVSGDPFCVEVCIISVKRRTIQMFLVYEDRVQIVKEVSTAEQPLAVAVDGHFLCLALTTQYIIHNYSTGVSQDLFPYCSEERPPIVKRIGRQEFLLAGPGGLGMFATVAGISQRAPVHWSENVIGAAVSFPYVIALDDEFITVHSMLDQQQKQTLPFKEGHILQDFEGRVIVATSKGVYILVPLPLEKQIQDLLASRRVEEALVLAKGARRNIPKEKFQVMYRRILQQAGFIQFAQLQFLEAKELFRSGQLDVRELISLYPFLLPTSSSFTRSHPPLHEYADLNQLTQGDQEKMAKCKRFLMSYLNEVRSTEVANGYKEDIDTALLKLYAEADHDSLLDLLVTENFCLLTDSAAWLEKHKKYFALGLLYHYNNQDAAAVQLWVNIVNGDVQDSTRSDLYEYIVDFLTYCLDEELVWAYADWVLQKSEEVGVQVFTKRPLDEQQKNSFNPDDIINCLKKYPKALVKYLEHLVIDKRLQKEEYHTHLAVLYLEEVLLQRASASGKGAEATETQAKLRRLLQKSDLYRVHFLLERLQGAGLPMESAILHGKLGEHEKALHILVHELQDFAAAEDYCLWCSEGRDPPHRQQLFHTLLAIYLHAGPTAHELAVAAVDLLNRHATEFDAAQVLQMLPDTWSVQLLCPFLMGAMRDSIHARRTMQVALGLARSENLIYTYDKMKLKGSSIQLSDKKLCQICQNPFCEPVFVRYPNGGLVHTHCAASRHTNPSSSSPGTRT
For the molecule B3, the binding entry in experiment [3] and in experiment [4] was “binds” each time.
